{"source": "patent US20150164837A1", "about": "“USE OF AMPHOTERIC SURFACTANTS FOR THE PREVENTION AND TREATMENT OF PATHOGENIC VAGINAL BIOFILMS IN VAGINAL INFECTIONS” (DR. AUGUST WOLFF GMBH & CO. KG ARZNEIMITTEL, priority 2012, published 2015)", "key": {"[1]": {"tested_on": "Gardnerella vaginalis biofilms", "experiment": "Live/Dead BacLight viability staining, forming (t0) and well developed, still growing (t20m) biofilms", "format": "cell-based, Gardnerella vaginalis (strain ATCC 14018)", "conditions": "mature biofilm (t20m), 20 hrs incubation", "description": "The inhibitory effect of amphoteric surfactants on the formation of Gardnerella vaginalis biofilms were tested in biofilms, grown in 96 well tissue culture test plates. Before starting the biofilm experiments, MIC (minimal inhibitory concentration) values for sodium cocoamphoacetate for planktonic growing Gardnerella vaginalis cultures were determined MIC values for sodium cocoamphoacetate against Gardnerella vaginalis had not been reported so far. […]\nThe viability was determined using the Live/Dead BacLight bacterial viability staining. […] In contrast, propidium iodide penetrates only bacteria with damaged membranes, causing a reduction in the SYTO 9 stain fluorescence when both dyes are present. […] After 15 min of incubation in the dark fluorescence was measured in a microtiter plate reader equipped with detectors and filter sets for monitoring red (630 nm) and green (530 nm) fluorescence. Afterwards the percentage of the reduction of viability was calculated.\nThe tested substances namely cocoamidopropyl hydroxysultaine, disodium cocamphodiacetate, sodium cocoamphopropionate and sodium lauroamphoacetate were dissolved in fresh media and added to a mature G. vaginalis biofilm (t20m, see Example 1). After another 20 hrs of incubation, the biofilm viability was determined via Live/Dead staining, as described above."}, "[2]": {"tested_on": "adherent bacteria (biofilm)", "conditions": "400 mg for five days; cited from earlier work"}, "[3]": {"tested_on": "bacterial vaginosis", "conditions": "within two to three months after the treatment; cited from earlier work"}}, "note": "For some assays here: At least one structure is not confirmed: it was looked up by name or label, or the drawing left a doubt. Some results were stated once for a whole list of compounds, not compound by compound.", "data": [{"compound": "cocoamidopropyl hydroxysultaine", "values": [{"measurement": "inhibition of biofilm viability", "setting": "[1]; 0.14 mg/ml", "value": "up to 90%"}]}, {"compound": "COc1c(N2C[C@@H]3CCCN[C@@H]3C2)c(F)cc2c(=O)c(C(=O)O)cn(C3CC3)c12", "note": "[moxifloxacin]", "values": [{"measurement": "effect on adherent bacteria", "setting": "[2]", "value": "just suppressed the adherent bacteria without eliminating them"}]}, {"compound": "sodium cocoamphopropionate", "values": [{"measurement": "inhibition of biofilm viability", "setting": "[1]; 0.16 mg/ml", "value": "up to 90%"}]}, {"compound": "CCC[C@@H]1C[C@@H](C(=O)N[C@@H]([C@H]2O[C@H](SC)[C@H](O)[C@@H](O)[C@H]2O)[C@H](C)Cl)N(C)C1", "note": "[clindamycin]", "values": [{"measurement": "women experiencing a relapse", "setting": "[3]", "value": "30-50%"}]}, {"compound": "Cc1ncc([N+](=O)[O-])n1CCO", "note": "[metronidazole]", "values": [{"measurement": "women experiencing a relapse", "setting": "[3]", "value": "30-50%"}]}]}
